Results from PMC6844273, “Platinum(IV) dihydroxido diazido N-(heterocyclic)imine complexes are potently photocytotoxic when irradiated with visible light” (Chemical Science, 2019).

Tested on: 5′-GMP
Experiment: 5′-GMP binding upon blue light irradiation (1H NMR)
Details: 420 nm, 2 mM complex (1 mM for 29) in PBS/D2O pH* 7.4, 2 mol eq. 5′-GMP, error 5–10 %

Substance | % Binding of 5′-GMP [%]
trans,trans,trans-[Pt(N3)2(OH)2(1-methylimidazole)2] [Complex 32] | 48
trans,trans,trans-[Pt(N3)2(OH)2(3-picoline)2] [Complex 23] | 68
trans,trans,trans-[Pt(N3)2(OH)2(4-picoline)2] [Complex 26] | 64
trans,trans,trans-[Pt(N3)2(OH)2(thiazole)2] [Complex 29] | 80
